The target in the test is T1, Fkh2-6Myc (C. albicans) (UniProt Q5A7S7).
T1 sequence: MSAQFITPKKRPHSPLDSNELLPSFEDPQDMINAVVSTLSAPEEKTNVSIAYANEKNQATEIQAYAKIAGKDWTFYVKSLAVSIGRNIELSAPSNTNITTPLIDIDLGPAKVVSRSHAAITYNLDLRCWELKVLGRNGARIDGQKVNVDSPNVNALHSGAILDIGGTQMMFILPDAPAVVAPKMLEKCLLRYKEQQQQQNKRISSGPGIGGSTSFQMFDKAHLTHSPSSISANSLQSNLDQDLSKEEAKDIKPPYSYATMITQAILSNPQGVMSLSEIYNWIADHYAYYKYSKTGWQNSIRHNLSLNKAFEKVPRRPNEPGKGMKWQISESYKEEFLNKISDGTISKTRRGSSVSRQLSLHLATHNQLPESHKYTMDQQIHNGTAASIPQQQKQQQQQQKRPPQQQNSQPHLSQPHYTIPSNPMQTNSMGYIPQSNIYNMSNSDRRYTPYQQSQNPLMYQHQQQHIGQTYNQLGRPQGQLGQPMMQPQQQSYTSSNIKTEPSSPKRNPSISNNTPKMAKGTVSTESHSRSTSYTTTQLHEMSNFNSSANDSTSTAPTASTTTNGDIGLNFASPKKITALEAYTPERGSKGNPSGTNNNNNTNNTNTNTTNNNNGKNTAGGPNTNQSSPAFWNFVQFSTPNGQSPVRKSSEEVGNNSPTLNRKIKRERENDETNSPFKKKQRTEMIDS
The test can be described thus: affinity purification with mass spectrometry; Fkh2-6Myc immuno-purified from approximately 1 g of total cell lysate (early upon hyphal induction) with Ez-view agarose, washed four times with cold lysis buffer, SDS-PAGE, Coomassie-stained bands identified by MS.

We go through 1 molecule from article PMC4305328.

No constants are given. Whether binding was seen depends on the method and setting. In cells and extracts the contact can be indirect. Here binding means that the protein was enriched with, or labelled near, the bait; the list need not be complete. Sequences can lack the tags named with a protein.

B1: Pob3 (Candida orthologue of ScPob3) (protein, UniProt Q5ALL8 1-538)
chain: MVNTDFEKIYLNQSRAGGRMRIAESGLGWKASASSGSTSQPFLLPREEILIASWSRGSKGYELRVQTKNKGVVSLDGFDHDDFTQLKQELTRNFHINLEHREHSLRGWNWGKTDLARNELIFNVNNKPAFEIPYSDISNSNLTGKNEVALEFNLDNNKNGDEIVEMRFYVPGTIENETTIVKNETNGDVIEEAVVNETSAAQQFYEQLKDKADIGQVAGEAIVSFSDVLFLTPRGRYDIDMYPSSLRLRGKTYDYKIQYEQIERIFSLPKPDETHHLIVLQIDPPLRQGQTRYPFLVLQFVKDEETELELNVSDEDFEKKYKDRLKKTYDAPTNVVMSHCLRGLTERKLITPGAFQSRYLQAGVPCSVKASEGYLFPLDRCFLFVTKPTLYIPYSEISSVVMSRTGGGVSASRTFDLEVNVIGSNQPHVFSNIDREEQEFIESFCKEKGVKVKNEEKIAKARLAKALEQEANDDDDEDADMGSAGDEDEDEDVDFQSGSDSDVAEEFDSDAAPSSDDDEEMADSKETDDRPPKKKAKN
Consider B1, for which the binding result is recorded as “binds”.
